Source: publication PMC7673134
These are yes or no findings as the source states them, for the method shown. Some entries that bind do so weakly or less than the wild type. Tags and fused reporters may be left off the sequences shown.

By UniProt entry, the sequences of proteins in these tests, tags left out.
UniProt Q94AH6: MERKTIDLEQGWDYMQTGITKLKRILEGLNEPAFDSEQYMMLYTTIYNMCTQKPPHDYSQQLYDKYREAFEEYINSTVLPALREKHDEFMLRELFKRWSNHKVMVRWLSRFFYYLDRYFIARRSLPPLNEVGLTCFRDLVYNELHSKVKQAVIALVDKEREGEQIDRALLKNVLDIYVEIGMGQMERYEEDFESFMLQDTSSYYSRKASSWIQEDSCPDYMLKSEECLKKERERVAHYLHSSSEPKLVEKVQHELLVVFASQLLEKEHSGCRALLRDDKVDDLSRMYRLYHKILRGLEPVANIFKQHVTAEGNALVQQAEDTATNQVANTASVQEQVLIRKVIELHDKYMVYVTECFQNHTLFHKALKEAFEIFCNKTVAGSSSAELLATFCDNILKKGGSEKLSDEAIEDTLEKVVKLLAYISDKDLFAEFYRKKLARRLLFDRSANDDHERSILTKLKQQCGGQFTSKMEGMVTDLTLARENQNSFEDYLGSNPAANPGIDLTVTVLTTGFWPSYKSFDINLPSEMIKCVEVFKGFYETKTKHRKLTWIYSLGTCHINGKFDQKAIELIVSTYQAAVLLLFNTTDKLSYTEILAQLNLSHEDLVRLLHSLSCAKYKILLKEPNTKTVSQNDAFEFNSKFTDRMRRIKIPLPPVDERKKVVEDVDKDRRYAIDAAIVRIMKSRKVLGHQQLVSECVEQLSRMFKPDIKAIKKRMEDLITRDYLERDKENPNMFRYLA

Target: T1, FCA fused with the binding domain (BD) (A. thaliana) (UniProt O04425)
T1 sequence: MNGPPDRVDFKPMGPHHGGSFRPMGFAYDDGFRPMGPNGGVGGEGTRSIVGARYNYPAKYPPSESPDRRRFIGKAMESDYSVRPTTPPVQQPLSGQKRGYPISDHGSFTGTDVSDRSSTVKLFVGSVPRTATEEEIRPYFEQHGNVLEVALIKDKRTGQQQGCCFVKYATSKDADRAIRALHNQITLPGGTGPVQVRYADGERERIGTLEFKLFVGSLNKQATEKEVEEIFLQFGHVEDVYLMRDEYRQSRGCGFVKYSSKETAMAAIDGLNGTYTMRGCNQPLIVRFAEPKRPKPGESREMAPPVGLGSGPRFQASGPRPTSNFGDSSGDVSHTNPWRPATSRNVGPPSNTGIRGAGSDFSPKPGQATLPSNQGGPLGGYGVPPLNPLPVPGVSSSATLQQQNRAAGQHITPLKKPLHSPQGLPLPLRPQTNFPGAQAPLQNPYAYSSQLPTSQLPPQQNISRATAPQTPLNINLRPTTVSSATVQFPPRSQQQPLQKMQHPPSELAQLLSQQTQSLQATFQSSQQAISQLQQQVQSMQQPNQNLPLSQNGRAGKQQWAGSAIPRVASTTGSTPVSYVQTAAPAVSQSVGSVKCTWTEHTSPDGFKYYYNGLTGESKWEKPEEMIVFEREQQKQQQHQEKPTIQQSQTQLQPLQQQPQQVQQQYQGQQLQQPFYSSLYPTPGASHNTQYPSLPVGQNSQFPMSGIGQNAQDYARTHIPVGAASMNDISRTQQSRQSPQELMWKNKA
Assay: two-hybrid; Matchmaker Gold yeast two-hybrid; BD fusions of SSF or FCA with AD-CUL1; 5x dilution series on medium without leucine, tryptophan, adenine and histidine

binding: binds
Substance: AD-CUL1 (from UniProt Q94AH6 1-738)
